# In the supplement of paper PMC8728848:
# The other results are listed elsewhere or left out.
# What was measured:
# Experiment in all cases: glycan array binding signal (z-score within array); higher = stronger binding
# Details in all cases: glycan notation: IUPAC condensed, linker removed
# [1] = target: GlcNAc(b1-2)Gal(b1-3)GalNAc
# Summary of the method: (§1)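 Columns mapping to the same glycan were averaged after glycan names were converted to IUPAC-condensed notation. The data come from 3228 arrays in the Consortium for Functional Glycomics database, limited to those with an available protein sequence. Binding is reported as a within-array Z-score averaged across arrays of one protein sequence and across linkers.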
# [2] = target: GlcNAc(b1-2)Man(a1-3)[GlcNAc(b1-2)Man(a1-6)]Man(b1-4)GlcNAc(b1-4)GlcNAc
# Summary of the method: as §1
# [3] = target: GlcNAc(b1-2)Man(a1-3)[GlcNAc(b1-2)Man(a1-6)]Man(b1-4)GlcNAc(b1-4)[Fuc(a1-6)]GlcNAc
# Summary of the method: as §1
# [4] = target: GlcNAc(b1-2)Man(a1-3)[GlcNAc(b1-4)][GlcNAc(b1-2)Man(a1-6)]Man(b1-4)GlcNAc(b1-4)GlcNAc
# Summary of the method: as §1
# [5] = target: GlcNAc(b1-2)Man(a1-3)[GlcNAc(b1-4)][GlcNAc(b1-2)Man(a1-6)]Man(b1-4)GlcNAc(b1-4)[Fuc(a1-6)]GlcNAc
# Summary of the method: as §1
# [6] = target: GlcNAc(b1-2)[GlcNAc(b1-4)]Man(a1-3)[GlcNAc(b1-2)Man(a1-6)]Man(b1-4)GlcNAc(b1-4)GlcNAc
# Summary of the method: as §1
# [7] = target: GlcNAc(b1-2)[GlcNAc(b1-4)]Man(a1-3)[GlcNAc(b1-4)][GlcNAc(b1-2)Man(a1-6)]Man(b1-4)GlcNAc(b1-4)GlcNAc
# Summary of the method: as §1
# [8] = target: GlcNAc(b1-2)[GlcNAc(b1-4)]Man(a1-3)[GlcNAc(b1-4)][GlcNAc(b1-2)[GlcNAc(b1-6)]Man(a1-6)]Man(b1-4)GlcNAc(b1-4)GlcNAc
# Summary of the method: as §1
# [9] = target: GlcNAc(b1-2)[GlcNAc(b1-4)]Man(a1-3)[GlcNAc(b1-4)][GlcNAc(b1-2)[GlcNAc(b1-6)]Man(a1-6)]Man(b1-4)GlcNAc(b1-4)[Fuc(a1-6)]GlcNAc
# Summary of the method: as §1
# [10] = target: GlcNAc(b1-2)[GlcNAc(b1-6)]Man(a1-6)[GlcNAc(b1-2)Man(a1-3)]Man(b1-4)GlcNAc(b1-4)GlcNAc
# Summary of the method: as §1
# [11] = target: GlcNAc(b1-2)[GlcNAc(b1-6)]Man(a1-6)[GlcNAc(b1-2)Man(a1-3)]Man(b1-4)GlcNAc(b1-4)[Fuc(a1-6)]GlcNAc
# Summary of the method: as §1
# [12] = target: GlcNAc(b1-2)[GlcNAc(b1-6)]Man(a1-6)[GlcNAc(b1-4)][GlcNAc(b1-2)Man(a1-3)]Man(b1-4)GlcNAc(b1-4)GlcNAc
# Summary of the method: as §1
# [13] = target: GlcNAc(b1-3)Fuc
# Summary of the method: as §1
# [14] = target: GlcNAc(b1-3)Gal
# Summary of the method: as §1
# [15] = target: GlcNAc(b1-3)Gal(b1-3)GalNAc
# Summary of the method: as §1
# [16] = target: GlcNAc(b1-3)Gal(b1-4)Glc
# Summary of the method: as §1
# [17] = target: GlcNAc(b1-3)Gal(b1-4)GlcNAc
# Summary of the method: as §1
# [18] = target: GlcNAc(b1-3)Gal(b1-4)GlcNAc(b1-2)Man(a1-3)[GlcNAc(b1-3)Gal(b1-4)GlcNAc(b1-2)Man(a1-6)]Man(b1-4)GlcNAc(b1-4)GlcNAc
# Summary of the method: as §1
# [19] = target: GlcNAc(b1-3)Gal(b1-4)GlcNAc(b1-2)Man(a1-3)[GlcNAc(b1-3)Gal(b1-4)GlcNAc(b1-2)Man(a1-6)]Man(b1-4)GlcNAc(b1-4)[Fuc(a1-6)]GlcNAc
# Summary of the method: as §1
# [20] = target: GlcNAc(b1-3)Gal(b1-4)GlcNAc(b1-2)[GlcNAc(b1-3)Gal(b1-4)GlcNAc(b1-6)]Man(a1-6)[GlcNAc(b1-3)Gal(b1-4)GlcNAc(b1-2)Man(a1-3)]Man(b1-4)GlcNAc(b1-4)GlcNAc
# Summary of the method: as §1
# [21] = target: GlcNAc(b1-3)Gal(b1-4)GlcNAc(b1-3)Gal(b1-4)GlcNAc
# Summary of the method: as §1
# [22] = target: GlcNAc(b1-3)Gal(b1-4)GlcNAc(b1-3)Gal(b1-4)GlcNAc(b1-2)Man(a1-3)[GlcNAc(b1-3)Gal(b1-4)GlcNAc(b1-3)Gal(b1-4)GlcNAc(b1-2)Man(a1-6)]Man(b1-4)GlcNAc(b1-4)GlcNAc
# Summary of the method: as §1
# [23] = target: GlcNAc(b1-3)Gal(b1-4)GlcNAc(b1-3)Gal(b1-4)GlcNAc(b1-2)Man(a1-3)[GlcNAc(b1-3)Gal(b1-4)GlcNAc(b1-3)Gal(b1-4)GlcNAc(b1-2)Man(a1-6)]Man(b1-4)GlcNAc(b1-4)[Fuc(a1-6)]GlcNAc
# Summary of the method: as §1
# [24] = target: GlcNAc(b1-3)Gal(b1-4)GlcNAc(b1-3)Gal(b1-4)GlcNAc(b1-2)[GlcNAc(b1-3)Gal(b1-4)GlcNAc(b1-3)Gal(b1-4)GlcNAc(b1-6)]Man(a1-6)[GlcNAc(b1-3)Gal(b1-4)GlcNAc(b1-3)Gal(b1-4)GlcNAc(b1-2)Man(a1-3)]Man(b1-4)GlcNAc(b1-4)[Fuc(a1-6)]GlcNAc
# Summary of the method: as §1
# [25] = target: GlcNAc(b1-3)Gal(b1-4)GlcNAc(b1-3)Gal(b1-4)GlcNAc(b1-3)Gal(b1-4)GlcNAc(b1-2)Man(a1-3)[GlcNAc(b1-3)Gal(b1-4)GlcNAc(b1-3)Gal(b1-4)GlcNAc(b1-3)Gal(b1-4)GlcNAc(b1-2)Man(a1-6)]Man(b1-4)GlcNAc(b1-4)GlcNAc
# Summary of the method: as §1
# [26] = target: GlcNAc(b1-3)Gal(b1-4)GlcNAc(b1-3)Gal(b1-4)GlcNAc(b1-3)Gal(b1-4)GlcNAc(b1-2)Man(a1-3)[GlcNAc(b1-3)Gal(b1-4)GlcNAc(b1-3)Gal(b1-4)GlcNAc(b1-3)Gal(b1-4)GlcNAc(b1-2)Man(a1-6)]Man(b1-4)GlcNAc(b1-4)[Fuc(a1-6)]GlcNAc
# Summary of the method: as §1
# [27] = target: GlcNAc(b1-3)Gal(b1-4)GlcNAc(b1-3)Gal(b1-4)GlcNAc(b1-3)Gal(b1-4)GlcNAc(b1-2)[GlcNAc(b1-3)Gal(b1-4)GlcNAc(b1-3)Gal(b1-4)GlcNAc(b1-3)Gal(b1-4)GlcNAc(b1-6)]Man(a1-6)[GlcNAc(b1-3)Gal(b1-4)GlcNAc(b1-3)Gal(b1-4)GlcNAc(b1-3)Gal(b1-4)GlcNAc(b1-2)Man(a1-3)]Man(b1-4)GlcNAc(b1-4)[Fuc(a1-6)]GlcNAc
# Summary of the method: as §1
# [28] = target: GlcNAc(b1-3)Gal(b1-4)GlcNAc(b1-3)Gal(b1-4)GlcNAc(b1-3)Gal(b1-4)GlcNAc(b1-3)Gal(b1-4)GlcNAc(b1-2)Man(a1-3)[GlcNAc(b1-3)Gal(b1-4)GlcNAc(b1-3)Gal(b1-4)GlcNAc(b1-3)Gal(b1-4)GlcNAc(b1-3)Gal(b1-4)GlcNAc(b1-2)Man(a1-6)]Man(b1-4)GlcNAc(b1-4)GlcNAc
# Summary of the method: as §1
# [29] = target: GlcNAc(b1-3)Gal(b1-4)GlcNAc(b1-3)Gal(b1-4)GlcNAc(b1-3)Gal(b1-4)GlcNAc(b1-3)Gal(b1-4)GlcNAc(b1-2)Man(a1-3)[GlcNAc(b1-3)Gal(b1-4)GlcNAc(b1-3)Gal(b1-4)GlcNAc(b1-3)Gal(b1-4)GlcNAc(b1-3)Gal(b1-4)GlcNAc(b1-2)Man(a1-6)]Man(b1-4)GlcNAc(b1-4)[Fuc(a1-6)]GlcNAc
# Summary of the method: as §1
# [30] = target: GlcNAc(b1-3)Gal(b1-4)GlcNAc(b1-3)Gal(b1-4)GlcNAc(b1-3)Gal(b1-4)GlcNAc(b1-3)Gal(b1-4)GlcNAc(b1-2)[GlcNAc(b1-3)Gal(b1-4)GlcNAc(b1-3)Gal(b1-4)GlcNAc(b1-3)Gal(b1-4)GlcNAc(b1-3)Gal(b1-4)GlcNAc(b1-6)]Man(a1-6)[GlcNAc(b1-3)Gal(b1-4)GlcNAc(b1-3)Gal(b1-4)GlcNAc(b1-3)Gal(b1-4)GlcNAc(b1-3)Gal(b1-4)GlcNAc(b1-2)Man(a1-3)]Man(b1-4)GlcNAc(b1-4)[Fuc(a1-6)]GlcNAc
# Summary of the method: as §1
# [31] = target: GlcNAc(b1-3)Gal(b1-4)GlcNAc(b1-3)Gal(b1-4)GlcNAc(b1-3)GalNAc
# Summary of the method: as §1
# [32] = target: GlcNAc(b1-3)Gal(b1-4)GlcNAc(b1-3)GalNAc
# Summary of the method: as §1
# [33] = target: GlcNAc(b1-3)Gal(b1-4)GlcNAc(b1-3)[GlcNAc(b1-3)Gal(b1-4)GlcNAc(b1-3)]GalNAc
# Summary of the method: as §1
# [34] = target: GlcNAc(b1-3)Gal(b1-4)GlcNAc(b1-6)[Gal(b1-3)]GalNAc
# Summary of the method: as §1
# [35] = target: GlcNAc(b1-3)Gal(b1-4)GlcNAc(b1-6)[GlcNAc(b1-3)Gal(b1-3)]GalNAc
# Summary of the method: as §1
# [36] = target: GlcNAc(b1-3)Gal(b1-4)GlcNAc(b1-6)[GlcNAc(b1-3)]Gal(b1-4)GlcNAc
# Summary of the method: as §1
# [37] = target: GlcNAc(b1-3)GalNAc
# Summary of the method: as §1
binder,measurement,setting,value
GS7807G-bfa-506-18-506 (Bacteroides fragilis) (protein) ASCDKFDEINTDPDATTKVTSSLLATGLLLDITSSSASKSFIYDELLAKQMAWGESMEDYQYNVFGRSGFGGYTTLINAQKMVESVSDDNVNAYDGLAHFIKAYKIFYMSMEMGDLPYEEALQGELGLVRPKYNTQKEVMNFILSDLETAYELFSTAKDFDGDPILGGSISKWKKATTAFQLKVLMHLSKKESDADLKVKERFARIVASGSLMESNEDNLQMKYADKANTVYPFHNTNTKHAGYAMLSTMLIDKFKATGDIRMFYYAKPAKAKLNEGVTADSWDAYIGTDPSLPFEQIEKAYATEQYSGFNARYTDYPSGEPVVRLGYAEQNFILAEAAVRGWISGDASAYYKKAIRAHMEFIASNTPDEEVYHHGHPITEEAIAAFLETPAIQLSGEKEEDIEKILTQRYLASFMQHPYDVYYDYRRTGYPVLPINPATNRNTMNDRLPMRWMYPKSESDYNLEHQNEALERQFGGVDDVNKLMWILQ,glycan array binding signal (z-score),[1],-0.909
same,glycan array binding signal (z-score),[2],-0.632
same,glycan array binding signal (z-score),[3],0.919
same,glycan array binding signal (z-score),[4],-0.508
same,glycan array binding signal (z-score),[5],-0.931
same,glycan array binding signal (z-score),[6],-0.615
same,glycan array binding signal (z-score),[7],-0.691
same,glycan array binding signal (z-score),[8],-1.04
same,glycan array binding signal (z-score),[9],-0.588
same,glycan array binding signal (z-score),[10],-0.456
same,glycan array binding signal (z-score),[11],-0.524
same,glycan array binding signal (z-score),[12],-0.548
same,glycan array binding signal (z-score),[13],-0.449
same,glycan array binding signal (z-score),[14],-0.823
same,glycan array binding signal (z-score),[15],-0.547
same,glycan array binding signal (z-score),[16],-0.386
same,glycan array binding signal (z-score),[17],-0.706
same,glycan array binding signal (z-score),[18],0.156
same,glycan array binding signal (z-score),[19],1.14
same,glycan array binding signal (z-score),[20],0.698
same,glycan array binding signal (z-score),[21],0.571
same,glycan array binding signal (z-score),[22],0.363
same,glycan array binding signal (z-score),[23],0.151
same,glycan array binding signal (z-score),[24],0.397
same,glycan array binding signal (z-score),[25],0.543
same,glycan array binding signal (z-score),[26],-0.297
same,glycan array binding signal (z-score),[27],0.033
same,glycan array binding signal (z-score),[28],-0.286
same,glycan array binding signal (z-score),[29],-0.27
same,glycan array binding signal (z-score),[30],0.162
same,glycan array binding signal (z-score),[31],-0.601
same,glycan array binding signal (z-score),[32],-0.4
same,glycan array binding signal (z-score),[33],-0.486
same,glycan array binding signal (z-score),[34],-0.548
same,glycan array binding signal (z-score),[35],-0.552
same,glycan array binding signal (z-score),[36],-0.946
same,glycan array binding signal (z-score),[37],-0.787

# Two entries from above, tab-delimited.
binder	measurement	setting	value
GS7807G-bfa-506-18-506 (Bacteroides fragilis) (protein) ASCDKFDEINTDPDATTKVTSSLLATGLLLDITSSSASKSFIYDELLAKQMAWGESMEDYQYNVFGRSGFGGYTTLINAQKMVESVSDDNVNAYDGLAHFIKAYKIFYMSMEMGDLPYEEALQGELGLVRPKYNTQKEVMNFILSDLETAYELFSTAKDFDGDPILGGSISKWKKATTAFQLKVLMHLSKKESDADLKVKERFARIVASGSLMESNEDNLQMKYADKANTVYPFHNTNTKHAGYAMLSTMLIDKFKATGDIRMFYYAKPAKAKLNEGVTADSWDAYIGTDPSLPFEQIEKAYATEQYSGFNARYTDYPSGEPVVRLGYAEQNFILAEAAVRGWISGDASAYYKKAIRAHMEFIASNTPDEEVYHHGHPITEEAIAAFLETPAIQLSGEKEEDIEKILTQRYLASFMQHPYDVYYDYRRTGYPVLPINPATNRNTMNDRLPMRWMYPKSESDYNLEHQNEALERQFGGVDDVNKLMWILQ	glycan array binding signal (z-score)	[28]	-0.286
same	glycan array binding signal (z-score)	[29]	-0.27
